Data as given in US20250312499A1, “KISSPEPTIN RECEPTOR (KISS1R) TARGETED THERAPEUTICS AND USES THEREOF” (priority 2024, published 2025).
At least one structure is not confirmed: it was looked up by name or label, or the drawing left a doubt. Square brackets hold non-standard residues; d marks the D form. Peptide text beside a SMILES is read from it. * marks the point of attachment. DOTA = O=C(O)CN1CCN(CC(=O)O)CCN(CC(=O)*)CCN(CC(=O)O)CC1; Hydrocinnamoyl(4-Me) = Cc1ccc(CCC(=O)*)cc1; Cha = N[C@@H](CC1CCCCC1)C(=O)O; Api = NC1(C(=O)O)CCNCC1; PEG2 = NCCOCCOCCC(=O)O; azaGly = NNC(=O)O; Sar = CNCC(=O)O

Amino acid sequences for entries named in this document (tags omitted).
UniProt Q969F8, whole entry: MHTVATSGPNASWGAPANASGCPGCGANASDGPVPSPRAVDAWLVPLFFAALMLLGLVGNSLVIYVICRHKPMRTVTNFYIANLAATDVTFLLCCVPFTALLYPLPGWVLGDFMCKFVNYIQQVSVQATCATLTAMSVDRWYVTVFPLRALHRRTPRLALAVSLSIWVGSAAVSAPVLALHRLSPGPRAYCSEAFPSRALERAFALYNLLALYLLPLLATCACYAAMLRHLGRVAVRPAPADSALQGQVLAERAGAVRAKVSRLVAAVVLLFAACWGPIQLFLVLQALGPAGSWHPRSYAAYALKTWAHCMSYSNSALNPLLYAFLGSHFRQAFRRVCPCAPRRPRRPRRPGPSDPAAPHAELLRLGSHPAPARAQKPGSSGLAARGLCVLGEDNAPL

Target: human kisspeptin receptor (Homo sapiens (Human), UniProt Q969F8)
Assay: Human KISS1R binding assay (membrane competition binding)
Details: 90 min at room temperature, competition with 0.2 nM [125I]-metastin (45-54), Flp-In T-Rex 293 kisspeptin membranes, metal complexes nonradioactive Ga, Lu, read-out: hKiSSR Binding Ki (90 min)
Procedure: Crude membrane fractions are prepared from Flp-In T-Rex 293 (Thermo Fisher) cell line expressing the human kisspeptin receptor. The cells are grown to 85-100% confluence on standard tissue culture dishes in Dulbecco's Modified Eagles Medium (DMEM) (Corning) supplemented with 10% FBS (Gemini), 1% penicillin-streptomycin-glutamine (Gibco), 500 μg/mL hygromycin, and 15 μg/mL blastacidin. 48 hrs prior to preparing membranes 10 μg/ml of tetracycline is added to the culture media to induce receptor expression. To prepare membranes, cells are scraped and collected in 1× Dulbecco's phosphate buffered saline (Corning) and then pelleted at 1000 RPMs. The cell pellet is reconstituted in membrane preparation buffer (20 mM HEPES, 6 mM MgCl2 and 1 mM EGTA, protease inhibitor tablets (Pierce), pH 7.4) and placed in a cell disruption vessel (Parr Instrument company) at 1000 PSI for 30 min on ice. The pressurized contents are then released and spun down at 1000 RPMs and the supernatant is collected and further centrifuged at 15,000 RPMs to pellet the membranes. The membrane pellet is resuspended in membrane preparation buffer, snap frozen and stored at −80° C. for later use.
The human kisspeptin membrane binding assay utilizes the following components: radiolabel [^125I]-metastin (45-54) (human) (Perkinhmer), crude Flp-In T-Rex 293 kisspeptin membranes, and competing small molecule and peptide ligands. The assay is initiated by combining in assay buffer (50 mM TrisHCl, 5 mM MgCl2, 2 mM EGTA, 10 mM CaCl2, 0.1% BSA, pH 7.4) a dose response of competing ligand (final concentrations are typically 0-10,000 nM), 5-10 μg of Flp-In T-Rex 293 kisspeptin membranes, and 0.2 n M [^125I]-metastin (45-54) in a 96-well assay plate and allowed to incubate 90 minutes at room temperature. Assay contents are then filtered through unifilter CF/C: microplates (PerkinElmer) pre-soaked with 0.5% BSA and washed with 9×400 μL of cold wash buffer (10 mM HEPES, 500 mM NaCl, 0.1% Tween-20, pH7.4). Assay plates are read using a Microbeta^2 (PerkinElmer) and Ki values for compounds are determined using a GraphPad Prism 9.3 non-linear regression analysis.

CNCC(=O)N1CCC(NC(=O)[C@H](CC(C)C)NC(=O)NNC(=O)[C@H](CC2CCCCC2)NC(=O)[C@@H](NC(=O)[C@H](CC(N)=O)NC(=O)[C@@H](CCCCNC(=O)CN2CCN(CC(=O)O)CCN(CC(=O)O)CCN(CC(=O)O)CC2)NC(=O)[C@@H](Cc2ccc(O)cc2)NC(=O)CCOCCOCCNC(=O)CCc2ccc(C)cc2)[C@@H](C)O)(C(=O)N[C@@H](Cc2c[nH]c3ccccc23)C(N)=O)CC1 [Compound 388] ({Hydrocinnamoyl(4-Me)-PEG2}-[dY][dK](DOTA)NT[Cha][azaGly]L[Api](Sar)W-NH2)
Ki: < 0.01 µM
